The record followed here is PMC5323044.

Results are given in words; binding and its absence hold for the method and conditions named. For some of these results: Binding can be weak; no strength is given. For some of these results: Tags and fused reporters may be left off the sequences shown. For some of these results: Binding seen in cells or lysates may run through a third protein.

One experiment has as its target T1, GST-SNX6-N (aa 1-181) (UniProt Q9UNH7).
T1 sequence: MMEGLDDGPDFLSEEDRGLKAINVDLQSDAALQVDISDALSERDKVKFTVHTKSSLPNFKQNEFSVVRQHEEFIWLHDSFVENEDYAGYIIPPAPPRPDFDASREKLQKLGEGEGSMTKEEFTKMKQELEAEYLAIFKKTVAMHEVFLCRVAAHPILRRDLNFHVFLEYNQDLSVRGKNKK
Kind of experiment: pull-down; in vitro binding assay: 2 μg of recombinant His-sumo-Homer protein incubated with GST, GST-SNX1-N or GST-SNX6-N immobilized on glutathione-Sepharose beads overnight at 4°C; immunoblotting; both purified. In general terms: Immunoblotting shows a protein as a band on a membrane.

Experiment [1] deals with T2, His-tagged SNX6 N-terminus (aa 1-181, encompassing the PX domain) (UniProt Q9UNH7).
T2 sequence: T1 sequence
Kind of experiment: pull-down; His-SNX1-N or His-SNX6-N immobilized on Ni-NTA agarose, incubated with mouse brain lysate overnight at 4°C; bound proteins by immunoblotting; only the target purified.

Experiment [2] deals with T3, SNX6 (endogenous, mouse brain) (mouse (endogenous in brain)) (UniProt Q6P8X1).
T3 sequence: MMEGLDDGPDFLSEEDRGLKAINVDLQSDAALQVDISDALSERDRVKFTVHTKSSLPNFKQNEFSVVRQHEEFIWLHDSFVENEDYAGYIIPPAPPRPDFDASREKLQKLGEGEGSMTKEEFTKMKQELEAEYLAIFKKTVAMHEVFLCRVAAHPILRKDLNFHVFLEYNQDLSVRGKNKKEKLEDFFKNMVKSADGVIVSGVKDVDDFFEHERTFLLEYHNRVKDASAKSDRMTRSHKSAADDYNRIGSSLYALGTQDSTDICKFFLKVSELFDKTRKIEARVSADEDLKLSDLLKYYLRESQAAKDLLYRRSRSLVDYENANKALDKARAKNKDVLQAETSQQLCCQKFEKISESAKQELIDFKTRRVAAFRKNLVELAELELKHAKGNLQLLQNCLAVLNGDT
Kind of experiment: immunoisolation of vesicles (membrane IP); membrane fraction (p100) of mouse brain lysate, buffer without detergent (0.25 M sucrose, 150 mM NaCl); mouse anti-SNX6 antibody coupled to Dynabeads Protein G; immunoblotting.

Take “His-sumo-Homer1c-C (aa188-366) (domain or fragment)”: the binding result with GST-SNX6-N (aa 1-181) is reported as “binds”.
For Homer1a (endogenous, mouse brain), the binding entry in experiment [1] and in experiment [2] was “no binding” in each case.
For “dynein intermediate chain (DIC) (endogenous, mouse brain)”, the binding entry in experiment [2] is listed as “binds”.
